PubChem BioAssay AID1224828 – NIAID, 2016

- Screen: 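Regulators linking TLR4 signalling to p65 nuclear translocation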 (primary screen)
- Cells: mouse RAW264.7 G9 macrophage reporter cells (GFP-p65, Tnf promoter-mCherry)
- Reagent: siRNA pool against mouse genes, 100 nM
- Duration: 2 days siRNA transfection, then 40 min LPS before fixation
- Conditions: LPS (Salmonella minnesota R595) at 10 ng/ml
- Detection: 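Microscopy ratio of nuclear to perinuclear-ring GFP-p65 signal, scaled to the plate median; gene score is the average of two replicate robust z-scores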
- Scale: p65 translocation robust z-score: higher = more nuclear NF-kappaB p65 after LPS than the plate median; nuclear/cytoplasmic p65 ratio: higher = more nuclear NF-kappaB p65
- Hit rule: 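Active if robust z is above 3.3 (negative regulators) or below -1.56, the Tlr4 control median (positive regulators); activity score 50 or more; control wells not called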
- Calls: active = hit (p65 shift raised or lowered); inactive = no clear change
This is an unselected part of about 17,000 reagents. 762 of them (4.5%) count as active. 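Active calls include both raised and lowered p65 entry, mostly lowered; wells with fewer than 50 cells lack a z-score.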 Raw values vary from plate to plate and are shown uncorrected.

{"gene": "1700067P10Rik (RIKEN cDNA 1700067P10 gene)", "p65 translocation robust z-score": -0.72, "nuclear/cytoplasmic p65 ratio, rep 1": 1.36, "nuclear/cytoplasmic p65 ratio, rep 2": 1.27, "low cell count flag": "enough cells to score", "call": "inactive"}
{"gene": "Or4k6 (olfactory receptor family 4 subfamily K member 6)", "p65 translocation robust z-score": 0.05, "nuclear/cytoplasmic p65 ratio, rep 1": 1.45, "nuclear/cytoplasmic p65 ratio, rep 2": 1.16, "low cell count flag": "enough cells to score", "call": "inactive"}
{"gene": "Pfpl (pore forming protein-like)", "p65 translocation robust z-score": -0.65, "nuclear/cytoplasmic p65 ratio, rep 1": 1.29, "nuclear/cytoplasmic p65 ratio, rep 2": 1.22, "low cell count flag": "enough cells to score", "call": "inactive"}
{"gene": "Clcf1 (cardiotrophin-like cytokine factor 1)", "p65 translocation robust z-score": -0.12, "nuclear/cytoplasmic p65 ratio, rep 1": 1.59, "nuclear/cytoplasmic p65 ratio, rep 2": 1.6, "low cell count flag": "enough cells to score", "call": "inactive"}
{"gene": "Cdc16 (CDC16 cell division cycle 16)", "p65 translocation robust z-score": 0.9, "nuclear/cytoplasmic p65 ratio, rep 1": 1.65, "nuclear/cytoplasmic p65 ratio, rep 2": 1.44, "low cell count flag": "enough cells to score", "call": "inactive"}

2 consecutive reagents already listed:
{"gene": "Or4k6 (olfactory receptor family 4 subfamily K member 6)", "p65 translocation robust z-score": 0.05, "nuclear/cytoplasmic p65 ratio, rep 1": 1.45, "nuclear/cytoplasmic p65 ratio, rep 2": 1.16, "low cell count flag": "enough cells to score", "call": "inactive"}
{"gene": "Pfpl (pore forming protein-like)", "p65 translocation robust z-score": -0.65, "nuclear/cytoplasmic p65 ratio, rep 1": 1.29, "nuclear/cytoplasmic p65 ratio, rep 2": 1.22, "low cell count flag": "enough cells to score", "call": "inactive"}

Further entries follow:
{"gene": "Igsf8 (immunoglobulin superfamily, member 8)", "nuclear/cytoplasmic p65 ratio, rep 1": 1.43, "nuclear/cytoplasmic p65 ratio, rep 2": 1.18, "low cell count flag": "fewer than 50 cells per well; well left out of scoring", "call": "inactive"}
{"gene": "Tnfrsf25 (tumor necrosis factor receptor superfamily, member 25)", "p65 translocation robust z-score": -1.22, "nuclear/cytoplasmic p65 ratio, rep 1": 1.39, "nuclear/cytoplasmic p65 ratio, rep 2": 1.31, "low cell count flag": "enough cells to score", "call": "inactive"}
{"gene": "Dzank1 (double zinc ribbon and ankyrin repeat domains 1)", "p65 translocation robust z-score": 1.71, "nuclear/cytoplasmic p65 ratio, rep 1": 1.73, "nuclear/cytoplasmic p65 ratio, rep 2": 1.59, "low cell count flag": "enough cells to score", "call": "inactive"}
{"gene": "Rdh5 (retinol dehydrogenase 5)", "p65 translocation robust z-score": -0.53, "nuclear/cytoplasmic p65 ratio, rep 1": 1.44, "nuclear/cytoplasmic p65 ratio, rep 2": 1.45, "low cell count flag": "enough cells to score", "call": "inactive"}
{"gene": "Tbca (tubulin cofactor A)", "p65 translocation robust z-score": -0.49, "nuclear/cytoplasmic p65 ratio, rep 1": 1.44, "nuclear/cytoplasmic p65 ratio, rep 2": 1.41, "low cell count flag": "enough cells to score", "call": "inactive"}
{"gene": "Irf5 (interferon regulatory factor 5)", "p65 translocation robust z-score": 0.04, "nuclear/cytoplasmic p65 ratio, rep 1": 1.47, "nuclear/cytoplasmic p65 ratio, rep 2": 1.39, "low cell count flag": "enough cells to score", "call": "inactive"}
{"gene": "Dnajc19 (DnaJ heat shock protein family (Hsp40) member C19)", "p65 translocation robust z-score": 1.04, "nuclear/cytoplasmic p65 ratio, rep 1": 1.49, "nuclear/cytoplasmic p65 ratio, rep 2": 1.32, "low cell count flag": "enough cells to score", "call": "inactive"}
